The list shows a part of the results. The data scatter; read single values as rough.
molecular target: T1, CARM1 C26 (UniProt Q86X55); assay: log2 mean competition ratio of IA-DTB cysteine labelling (DMSO/compound) (log2 ratio); higher = stronger cysteine engagement by compound; conditions: 50 µM; treatment time: 4 h; cell line lysate: HEK293T
T1 sequence (whole entry): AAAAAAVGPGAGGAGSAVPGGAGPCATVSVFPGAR
Protocol: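 IA-DTB competitive cysteine chemoproteomics in HEK293T RIPA lysate. Lysates were treated with compound 29 or 30 at 50 or 200 µM for 4 h, then IA-DTB (500 µM, 1 h), trypsin-digested, NeutrAvidin-enriched and analysed by diaPASEF. Competition ratio = intensity DMSO / intensity compound (n=4 treated, n=64 DMSO); binding: mean log2 CR ≥ 1 and p ≤ 0.05 plus QC filters. Target is the cysteine site.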

| Structure (SMILES) | log2 mean competition ratio |
| --- | --- |
| O=C(CCl)N[C@H]1CCCc2ccccc21 | 0.509 |
| O=C(CCl)N[C@@H]1CCCc2ccccc21 | 0.0738 |

same assay, conditions: 200 µM; treatment time: 4 h; cell line lysate: HEK293T

| Structure (SMILES) | log2 mean competition ratio |
| --- | --- |
| O=C(CCl)N[C@H]1CCCc2ccccc21 | -0.113 |
| O=C(CCl)N[C@@H]1CCCc2ccccc21 | -0.295 |

Reference: the supplement of paper PMC11732987, “Enantioselective OTUD7B fragment discovery through chemoproteomics screening and high-throughput optimisation” (Communications Chemistry, 2025)
